Values quoted from earlier work in US20040186085A1, “Composition containing a steroid and a glycol” (priority 2001, published 2004).
At least one structure is not confirmed: it was looked up by name or label, or the drawing left a doubt.

Details: cited from earlier work

For `C[C@]12CC[C@H](O)CC1=C[C@@H](O)[C@@H]1[C@@H]2CC[C@]2(C)C(=O)CC[C@@H]12` [7α-hydroxy-DHEA], which anti-free-radical effects is on record?
Its anti-free-radical effects is “has anti-free-radical effects”.
